Paper doi:10.1101/2023.09.12.557395

Protein sequences, listed by entry. Tags and fused reporters are not part of them. Lines headed by an entry give the natural chain unless they say otherwise; changes in a name come on top. Residues count along the entry.
UniProt Q9UBX2, residues 1-409: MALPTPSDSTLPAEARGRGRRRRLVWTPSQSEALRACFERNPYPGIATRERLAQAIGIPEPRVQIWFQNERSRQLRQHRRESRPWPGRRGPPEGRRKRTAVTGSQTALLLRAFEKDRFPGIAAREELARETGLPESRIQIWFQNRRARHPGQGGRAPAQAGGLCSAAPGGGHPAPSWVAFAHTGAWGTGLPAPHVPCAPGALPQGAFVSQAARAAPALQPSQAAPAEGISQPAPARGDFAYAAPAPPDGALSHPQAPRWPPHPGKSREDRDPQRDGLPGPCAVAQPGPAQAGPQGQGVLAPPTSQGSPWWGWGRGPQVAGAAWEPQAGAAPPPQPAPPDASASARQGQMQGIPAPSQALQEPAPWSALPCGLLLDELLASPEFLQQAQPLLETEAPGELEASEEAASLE

Columns and labels:
Test in all cases: affinity purification with mass spectrometry
DUX4_ΔTAD (human) [1] = target: DUX4_ΔTAD (human) (UniProt Q9UBX2)
DUX4_ΔC (human) = target: DUX4_ΔC (human)
DUX4_ΔTAD (human) [2] = target: DUX4_ΔTAD (human) (UniProt Q9UBX2); remark: listed apart in the source

p300 (from UniProt Q09472 1-2414) was tested, and the binding (DUX4_ΔTAD (human) [1]) was “binds”.

B1: BANF1 (protein, UniProt O75531 1-89)
chain: MTTSQKHRDFVAEPMGEKPVGSLAGIGEVLGKKLEERGFDKAYVVLGQFLVLKKDEDLFREWLKDTCGANAKQSRDCFGCLREWCDAFL
For B1, the binding (DUX4_ΔC (human)) was “binds”.

B2: DnaJ homolog subfamily C member 9 (DNAJC9) (protein, UniProt Q8WXX5 1-260)
chain: MGLLDLCEEVFGTADLYRVLGVRREASDGEVRRGYHKVSLQVHPDRVGEGDKEDATRRFQILGKVYSVLSDREQRAVYDEQGTVDEDSPVLTQDRDWEAYWRLLFKKISLEDIQAFEKTYKGSEEELADIKQAYLDFKGDMDQIMESVLCVQYTEEPRIRNIIQQAIDAGEVPSYNAFVKESKQKMNARKRRAQEEAKEAEMSRKELGLDEGVDSLKAAIQSRQKDRQKEMDNFLAQMEAKYCKSSKGGGKKSALKKEKK
With B2 the binding (DUX4_ΔC (human)) was “binds”.

B3: Mediator of RNA polymerase II transcription subunit 25 (MED25) (protein, UniProt Q71SY5 1-747)
chain: MVPGSEGPARAGSVVADVVFVIEGTANLGPYFEGLRKHYLLPAIEYFNGGPPAETDFGGDYGGTQYSLVVFNTVDCAPESYVQCHAPTSSAYEFVTWLDGIKFMGGGGESCSLIAEGLSTALQLFDDFKKMREQIGQTHRVCLLICNSPPYLLPAVESTTYSGCTTENLVQQIGERGIHFSIVSPRKLPALRLLFEKAAPPALLEPLQPPTDVSQDPRHMVLVRGLVLPVGGGSAPGPLQSKQPVPLPPAAPSGATLSAAPQQPLPPVPPQYQVPGNLSAAQVAAQNAVEAAKNQKAGLGPRFSPITPLQQAAPGVGPPFSQAPAPQLPPGPPGAPKPPPASQPSLVSTVAPGSGLAPTAQPGAPSMAGTVAPGGVSGPSPAQLGAPALGGQQSVSNKLLAWSGVLEWQEKPKPASVDANTKLTRSLPCQVYVNHGENLKTEQWPQKLIMQLIPQQLLTTLGPLFRNSRMVQFHFTNKDLESLKGLYRIMGNGFAGCVHFPHTAPCEVRVLMLLYSSKKKIFMGLIPYDQSGFVNGIRQVITNHKQVQQQKLEQQQRGMGGQQAPPGLGPILEDQARPSQNLLQLRPPQPQPQGTVGASGATGQPQPQGTAQPPPGAPQGPPGAASGPPPPGPILRPQNPGANPQLRSLLLNPPPPQTGVPPPQASLHHLQPPGAPALLPPPHQGLGQPQLGPPLLHPPPAQSWPAQLPPRAPLPGQMLLSGGPRGPVPQPGLQPSVMEDDILMDLI
In the case of B3, the binding (DUX4_ΔTAD (human) [2]) is reported as “binds”.

Like-named read-outs stand apart in the source and are kept apart here. These are yes or no findings as the source states them, for the method shown. In cells and extracts the contact can be indirect. Here binding means that the protein was enriched with, or labelled near, the bait; the list need not be complete.
